{"source": "patent US4774319", "about": "(dated 1988)", "note": "Square brackets hold non-standard residues; d marks the D form. * marks the point of attachment. Mts = Cc1cc(C)c(S(=O)(=O)*)c(C)c1; Met(O) = CS(=O)CC[C@H](N)C(=O)O; OPac = O=C(CO*)c1ccccc1; Cbz = O=C(OCc1ccccc1)*; Boc = CC(C)(C)OC(=O)*; OcHex = C1CCC(O*)CC1; OBn = c1ccc(CO*)cc1; Bn = c1ccc(C*)cc1"}
{"assay": "general procedure: solution-phase peptide synthesis; WSC/HOBt; SBCF mixed anhydride with NMM; ONp active esters; DCC or WSC with HOSu", "conditions": "coupling step", "units": {"step yield": "%"}}
{"substance": "Boc-IFT(Bn)NS(Bn)Y(Bn)-OBn", "step yield": 92}
{"substance": "Boc-Ile-Phe-Thr-Asn-Ser-Tyr-Arg(Mts)-Lys(Z)-Val-Leu-Gly-Gln-Leu-Ser(Bzl)-Ala-Arg(Mts)-Lys(Z)-Leu-Leu-Gln-Asp(OBzl)-Ile-Met(O)-Ser(Bzl)-Arg(Mts) NH2", "step yield": 83.8}
{"substance": "Boc-LS(Bn)AR(Mts)K(Cbz)L-OPac", "step yield": 85.0}
{"assay": "general procedure: solution-phase peptide synthesis; WSC/HOBt; SBCF mixed anhydride with NMM; ONp active esters; DCC or WSC with HOSu", "conditions": "coupling step; run 1", "units": {"step yield": "%"}}
{"substance": "Boc-FT(Bn)NS(Bn)Y(Bn)-OBn", "step yield": 92.0}
{"substance": "Boc-YAD(OcHex)AIFT(Bn)NS(Bn)Y(Bn)-OBn", "step yield": 53.5}
{"substance": "Boc-R(Mts)K(Cbz)VLGQLS(Bn)AR(Mts)K(Cbz)LLQD(OBn)I[Met(O)]S(Bn)R(Mts)-NH2", "step yield": 100}
{"substance": "Boc-Y(Bn)AD(OcHex)AI-OBn", "step yield": 100}
{"substance": "Boc-K(Cbz)VLG-OPac", "step yield": 80.1}
{"substance": "Boc-T(Bn)NS(Bn)Y(Bn)-OBn", "step yield": 82.2}
{"substance": "Boc-Tyr-Ala-Asp(OcHex)-Ala-Ile-Phe-Thr-Asn-Ser-Tyr-Arg(Mts)-Lys(Z)-Val-Leu-Gly-Gln-Leu-Ser(Bzl)-Ala- Arg(Mts)-Lys(Z)-Leu-Leu-Gln-Asp(OBzl)-Ile-Met(O)-Ser(Bzl)-Arg(Mts)-NH2", "step yield": 100}
{"substance": "Boc-AR(Mts)K(Cbz)L-OPac", "step yield": 89.0}
{"substance": "Boc-QLS(Bn)AR(Mts)K(Cbz)LLQD(OBn)I[Met(O)]S(Bn)R(Mts)-NH2", "step yield": 81.6}
{"assay": "general procedure: solution-phase peptide synthesis; WSC/HOBt; SBCF mixed anhydride with NMM; ONp active esters; DCC or WSC with HOSu", "conditions": "coupling step; run 2", "units": {"step yield": "%"}}
{"substance": "Boc-FT(Bn)NS(Bn)Y(Bn)-OBn", "step yield": 81.6}
{"substance": "Boc-QLS(Bn)AR(Mts)K(Cbz)LLQD(OBn)I[Met(O)]S(Bn)R(Mts)-NH2", "step yield": 77}
{"assay": "general procedure: solution-phase peptide synthesis; WSC/HOBt; SBCF mixed anhydride with NMM; ONp active esters; DCC or WSC with HOSu", "conditions": "late stage modification step", "units": {"step yield": "%"}}
{"substance": "Boc-YAD(OcHex)AIFTNSY-OH", "step yield": 93.4}
{"substance": "Boc-YAD(OcHex)AI-OH", "step yield": 87.3}
{"substance": "Boc-IFTNSY-OH", "step yield": 80.7}
{"substance": "Boc-Tyr(Cl2 -Bzl)-Ala-Asp(OBzl)-Ala-OH", "step yield": 81.3}
{"assay": "general procedure: solution-phase peptide synthesis; WSC/HOBt; SBCF mixed anhydride with NMM; ONp active esters; DCC or WSC with HOSu", "conditions": "late stage modification step; run 1", "units": {"step yield": "%"}}
{"substance": "H-LQD(OBn)I[Met(O)]S(Bn)R(Mts)-NH2", "step yield": 99.2}
{"substance": "PMZ-Arg(Mts)-Lys(Z)-Val-Leu-Gly-OH", "step yield": 82.4}
{"substance": "H-FT(Bn)NS(Bn)Y(Bn)-OBn", "step yield": 99.95}
